# Data as given in PMC8006202, “Influence of YES1 Kinase and Tyrosine Phosphorylation on the Activity of OCT1” (Frontiers in Pharmacology, 2021).
# Test system: OCT1/OCT2 (OCT1/2)-deficient mice
# Test: Targeted metabolomics / IBC levels in wild-type versus OCT1/2-deficient mice
# Type: in vivo, mouse
# [1] = liver, OCT1/2-deficient vs wild-type mice, females
# [2] = liver, OCT1/2-deficient vs wild-type mice, males
Compound,Fold-change Female (KO/WT) [1],Fold-change Male (KO/WT) [2],"Fold-change Female (KO/WT) (mouse, in vivo)","Fold-change Male (KO/WT) (mouse, in vivo)"
CSCC[C@H](N)C(=O)O [methionine],0.70,0.88,–,–
NC(=O)c1cccnc1 [nicotinamide],1.05,1.03,–,–
CC(C)(CO)[C@@H](O)C(=O)NCCC(=O)O [pantothenic acid],0.93,0.57,–,–
N[C@@H](Cc1ccccc1)C(=O)O [phenyl-alanine],0.90,0.84,–,–
O=C(O)C(O)Cc1ccccc1 (centres unmarked) [phenyl-lactic acid],1.08,0.76,–,–
C[N+](C)(C)CCOP(=O)(O)O [phosphorylcholine],1.29,0.81,–,–
O=C(O)[C@@H]1CCCN1 [proline],0.98,0.80,–,–
CCC(=O)OCC[N+](C)(C)C [propionylcholine],0.37,0.52,–,–
c1ncc2nc[nH]c2n1 [purine],0.84,0.81,–,–
Cc1ncc(CO)c(CN)c1O [pyridoxamine],1.00,1.00,–,–
O=C(O)c1cccnc1C(=O)O [quinolinate],0.62,0.74,–,–
Cc1cc2nc3c(=O)[nH]c(=O)nc-3n(C[C@H](O)[C@H](O)[C@H](O)CO)c2cc1C [riboflavin],0.89,0.96,–,–
O=C[C@H](O)[C@H](O)[C@H](O)COP(=O)(O)O [ribose 5-phosphate],0.85,0.91,–,–
O=C(CO)[C@@H](O)[C@H](O)[C@H](O)[C@H](O)COP(=O)(O)O [sedoheptulose-7-phosphate],1.14,0.84,–,–
O=P(O)(O)OC[C@H](O)CO [sn-glycero3-phosphate],0.93,1.02,–,–
NCCCCNCCCN [spermidine],1.91,0.44,–,–

Compound,Fold-change Female (KO/WT) [1],Fold-change Male (KO/WT) [2],"Fold-change Female (KO/WT) (mouse, in vivo)","Fold-change Male (KO/WT) (mouse, in vivo)"
NCCS(=O)(=O)O [taurine],0.92,0.64,–,–
Cc1ncc(C[n+]2csc(CCO)c2C)c(N)n1 [thiamine],0.86,0.79,–,–
N[C@@H](Cc1c[nH]c2ccccc12)C(=O)O [tryptophan],–,–,0.88,0.98
N[C@@H](Cc1ccc(O)cc1)C(=O)O [tyrosine],0.93,0.87,–,–
O=c1cc[nH]c(=O)[nH]1 [uracil],1.06,0.90,–,–
NC(N)=O [urea],0.94,0.72,–,–
CC(C)[C@H](N)C(=O)O [valine],0.83,0.85,–,–
O=c1[nH]c(=O)c2nc[nH]c2[nH]1 [xanthine],0.95,0.95,–,–
OC[C@H]1O[C@@H](n2cnc3c(O)nc(O)nc32)[C@H](O)[C@@H]1O [xanthosine],0.93,1.14,–,–
NCCCC(=O)O [y-aminobutyric acid],0.85,0.98,–,–
G6P-F6P,0.91,0.81,–,–
SDMA-ADMA,0.95,0.71,–,–
carnitine-C5,1.64,2.44,–,–
carnitine-C14,2.66,4.30,–,–
hydroxyglutaric acid,0.52,0.95,–,–
